Results are given in words; binding and its absence hold for the method and conditions named. In cells and extracts the contact can be indirect. Some entries that bind do so weakly or less than the wild type. Where a sequence is shown, tags or fusion partners need not be part of it.
T1: Myc-Olig2 3KR (K27/76/112R) (mouse) (UniProt Q9EQW6)
T1 sequence: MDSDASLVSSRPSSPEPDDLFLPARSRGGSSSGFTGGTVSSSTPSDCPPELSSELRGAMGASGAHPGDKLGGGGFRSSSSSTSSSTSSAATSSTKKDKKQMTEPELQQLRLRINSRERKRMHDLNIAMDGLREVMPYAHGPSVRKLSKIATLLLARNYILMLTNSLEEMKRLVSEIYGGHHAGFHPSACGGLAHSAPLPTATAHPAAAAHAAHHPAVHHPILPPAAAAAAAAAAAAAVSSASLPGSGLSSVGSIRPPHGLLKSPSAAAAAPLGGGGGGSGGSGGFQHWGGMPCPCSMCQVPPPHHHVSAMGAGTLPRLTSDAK

Amino acid sequences for entries named in this document (tags omitted).
UniProt Q04888: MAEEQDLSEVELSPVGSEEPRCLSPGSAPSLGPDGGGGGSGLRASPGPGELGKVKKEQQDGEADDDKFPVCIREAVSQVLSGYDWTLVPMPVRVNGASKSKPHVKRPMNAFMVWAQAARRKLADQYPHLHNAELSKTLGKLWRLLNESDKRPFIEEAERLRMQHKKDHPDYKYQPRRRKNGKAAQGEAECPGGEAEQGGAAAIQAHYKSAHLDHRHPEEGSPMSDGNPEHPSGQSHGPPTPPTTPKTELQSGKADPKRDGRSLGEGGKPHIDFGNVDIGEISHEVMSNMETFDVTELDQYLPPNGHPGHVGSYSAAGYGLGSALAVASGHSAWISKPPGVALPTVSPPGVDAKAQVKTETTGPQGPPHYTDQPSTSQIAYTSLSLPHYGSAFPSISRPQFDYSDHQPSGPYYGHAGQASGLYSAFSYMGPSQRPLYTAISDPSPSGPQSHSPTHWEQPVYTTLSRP

T2: Myc-Olig2 (wild type) (mouse) (UniProt Q9EQW6)
T2 sequence: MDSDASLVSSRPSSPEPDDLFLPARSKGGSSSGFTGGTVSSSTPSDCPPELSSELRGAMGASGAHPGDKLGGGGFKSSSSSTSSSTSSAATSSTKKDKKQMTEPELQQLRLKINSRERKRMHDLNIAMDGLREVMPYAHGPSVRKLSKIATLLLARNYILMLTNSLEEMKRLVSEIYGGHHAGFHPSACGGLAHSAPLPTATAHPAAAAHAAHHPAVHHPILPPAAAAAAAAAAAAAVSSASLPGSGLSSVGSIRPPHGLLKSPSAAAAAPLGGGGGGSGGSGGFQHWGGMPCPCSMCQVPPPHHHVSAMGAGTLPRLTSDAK

T3: Myc-Olig2 (wild type) (mouse), Q9EQW6
T3 chain: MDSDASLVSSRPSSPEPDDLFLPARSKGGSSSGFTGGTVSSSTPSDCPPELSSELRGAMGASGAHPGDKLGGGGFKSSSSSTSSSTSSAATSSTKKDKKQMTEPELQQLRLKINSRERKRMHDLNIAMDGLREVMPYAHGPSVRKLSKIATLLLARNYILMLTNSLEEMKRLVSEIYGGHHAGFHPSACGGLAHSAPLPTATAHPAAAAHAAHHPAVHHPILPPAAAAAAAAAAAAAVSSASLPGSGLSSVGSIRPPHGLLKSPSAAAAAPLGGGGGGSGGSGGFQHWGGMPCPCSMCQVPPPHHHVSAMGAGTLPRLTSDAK


Tests used:
Assay in all cases: co-IP; non-denaturing co-IP with WT or 3KR Myc-Olig2 as bait; co-expressed Flag-Olig2, Olig1, Nkx2.2 or Sox10 as prey (Fig. S5F-I); lysis buffer 20 mM Tris-HCl pH 7.5, 150 mM NaCl, 1% Triton X-100, 0.1% SDS, 2 mM EDTA, 10% glycerol
[1] = biological target: T1, Myc-Olig2 3KR (K27/76/112R) (mouse)
[2] = biological target: T2, Myc-Olig2 (wild type) (mouse)
[3] = biological target: T3, Myc-Olig2 (wild type) (mouse), Q9EQW6; conditions: remark: other sources report otherwise

Row | binding [1] | binding [2] | binding [3] | Molecule
1 | binds | binds | – | HA-Sox10 (from UniProt Q04888 1-466)
2 | – | – | binds | Flag-Olig2 (wild type), Q9EQW6 1-323 (protein) MDSDASLVSSRPSSPEPDDLFLPARSKGGSSSGFTGGTVSSSTPSDCPPELSSELRGAMGASGAHPGDKLGGGGFKSSSSSTSSSTSSAATSSTKKDKKQMTEPELQQLRLKINSRERKRMHDLNIAMDGLREVMPYAHGPSVRKLSKIATLLLARNYILMLTNSLEEMKRLVSEIYGGHHAGFHPSACGGLAHSAPLPTATAHPAAAAHAAHHPAVHHPILPPAAAAAAAAAAAAAVSSASLPGSGLSSVGSIRPPHGLLKSPSAAAAAPLGGGGGGSGGSGGFQHWGGMPCPCSMCQVPPPHHHVSAMGAGTLPRLTSDAK
3 | binds | binds | – | HA-Olig1 (protein, UniProt Q9JKN5 1-260) MYYAISQARVNAAPATMLRPQRPGDVQLGASLYELVGYRQPPISSSSSSSSSTASLLPKPAREKAEAPLAEPRGPAPESGGARADAKEEQQQQQLRRKINSRERKRMQDLNLAMDALREVILPYSAAHCQGAPGRKLSKIATLLLARNYILLLGSSLQELRRALGDGAGPAAPRLLLAGLPLLAAAPGSVLLAPGAVGPPETLRPTKYLSLALDEPPCGQFSLPAGGAGSPGLCSCAVCKFPHLVPAGLGLAAVQAQFSK
4 | binds | binds | – | HA-Nkx2.2 (protein, UniProt P42586 1-273) MSLTNTKTGFSVKDILDLPDTNDEDGSVAEGPEEESEGPEPAKRAGPLGQGALDAVQSLPLKSPFYDSSDNPYTRWLASTEGLQYSLHGLAASAPPQDSSSKSPEPSADESPDNDKETQGGGGDAGKKRKRRVLFSKAQTYELERRFRQQRYLSAPEREHLASLIRLTPTQVKIWFQNHRYKMKRARAEKGMEVTPLPSPRRVAVPVLVRDGKPCHALKAQDLAAATFQAGIPFSAYSAQSLQHMQYNAQYSSASTPQYPTAHPLVQAQQWTW

— publication PMC7560653
